Reference: patent US20250179471A1
These are yes or no findings as the source states them, for the method shown. A result given as binding can be weak or reduced; the word gives no strength.

Target: ADAMTSL5
Assay: phage ELISA

binding: binds
B1: isecarosmab (1) VHH framework scaffold (parental) (VHH)
VHH: DVQLVESGGGVVQPGGSLRLSCAASGRTVSSYAMGWFRQAPGKEREFVAGISRSAERTYYVDSLKGRFTISRDNSKNTVYLQMNSLRPEDTALYYCAADLDPNRIFSREEYAYWGQGTLVTVSS
